Drawing on patent US20040214988, this text covers binding result and Kd for two sequences.

Chains of the proteins cited; added tags and fusions are not shown. Residues count along the entry.
UniProt P03069, 226-281: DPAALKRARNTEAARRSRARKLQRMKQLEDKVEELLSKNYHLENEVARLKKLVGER

The Kd is the equilibrium constant for the complex coming apart.

For data set [1], the target named is Tfl-bZip (GCN4 bZip segment 226-281 with Tfl-GCN4-p1 dimerization domain) four d-position Leu of the GCN4-p1 zipper replaced by 5,5,5-trifluoroleucine (UniProt P03069). The data set is described as follows: EMSA. The following applies: no protein-bound DNA seen; synthetic protein.
Data set [2] concerns the target Leu-bZip (GCN4 bZip segment, residues 226-281) (UniProt P03069). The data set is described as follows: EMSA. As to conditions: densitometry of mobility shift; site name for this value implied by order in text; synthetic protein. (In general: A gel shift assay detects complexes by their altered migration in electrophoresis.)

For at least one entry, the source does not settle the construct or the ends of the probe. For some assays here: No signal at the amounts used counts as a negative.

With “GATCCCAACACGTGTTGGGATC (double strand) [NON nonspecific oligonucleotide]”, the binding result in data set [1] is “no binding”.

Turning to “TGGAGATGACGTCATCTCCT (double strand) [CREB site oligonucleotide]”, the Kd in data set [2] was found to be 4.8 nM.
